These are yes or no findings as the source states them, for the method shown. Some entries that bind do so weakly or less than the wild type. Sequences can lack the tags named with a protein.

By UniProt entry, the sequences of proteins in these tests, tags left out.
UniProt Q24368: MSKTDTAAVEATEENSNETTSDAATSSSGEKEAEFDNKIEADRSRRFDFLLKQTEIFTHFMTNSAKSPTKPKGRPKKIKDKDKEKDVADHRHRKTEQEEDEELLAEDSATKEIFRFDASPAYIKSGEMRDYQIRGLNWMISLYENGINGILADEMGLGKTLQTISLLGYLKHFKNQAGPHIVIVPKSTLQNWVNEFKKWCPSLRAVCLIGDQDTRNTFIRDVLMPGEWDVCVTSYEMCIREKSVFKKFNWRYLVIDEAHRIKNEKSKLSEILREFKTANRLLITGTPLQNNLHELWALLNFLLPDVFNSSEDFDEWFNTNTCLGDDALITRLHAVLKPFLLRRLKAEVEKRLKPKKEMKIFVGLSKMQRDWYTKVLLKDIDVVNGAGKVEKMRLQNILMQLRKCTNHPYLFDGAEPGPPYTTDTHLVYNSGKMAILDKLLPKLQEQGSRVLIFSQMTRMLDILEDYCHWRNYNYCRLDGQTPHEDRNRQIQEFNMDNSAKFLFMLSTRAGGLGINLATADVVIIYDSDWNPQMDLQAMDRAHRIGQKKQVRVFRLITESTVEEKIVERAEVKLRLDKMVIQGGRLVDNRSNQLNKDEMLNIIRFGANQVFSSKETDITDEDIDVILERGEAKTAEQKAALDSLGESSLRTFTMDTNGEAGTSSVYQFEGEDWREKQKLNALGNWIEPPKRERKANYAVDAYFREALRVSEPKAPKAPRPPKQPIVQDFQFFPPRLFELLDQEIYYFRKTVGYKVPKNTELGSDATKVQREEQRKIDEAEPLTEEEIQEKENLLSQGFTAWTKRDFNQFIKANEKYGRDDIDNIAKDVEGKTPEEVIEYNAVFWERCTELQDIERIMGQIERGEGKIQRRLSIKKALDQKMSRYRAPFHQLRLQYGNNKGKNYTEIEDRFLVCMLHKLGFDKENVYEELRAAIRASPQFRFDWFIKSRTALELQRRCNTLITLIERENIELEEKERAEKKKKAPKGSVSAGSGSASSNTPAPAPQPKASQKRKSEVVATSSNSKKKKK

This experiment has as its target T1, Acf1 regulatory subunit of the Drosophila ACF complex, FLAG-tagged (Drosophila melanogaster) (UniProt Q9V9T4).
T1 sequence: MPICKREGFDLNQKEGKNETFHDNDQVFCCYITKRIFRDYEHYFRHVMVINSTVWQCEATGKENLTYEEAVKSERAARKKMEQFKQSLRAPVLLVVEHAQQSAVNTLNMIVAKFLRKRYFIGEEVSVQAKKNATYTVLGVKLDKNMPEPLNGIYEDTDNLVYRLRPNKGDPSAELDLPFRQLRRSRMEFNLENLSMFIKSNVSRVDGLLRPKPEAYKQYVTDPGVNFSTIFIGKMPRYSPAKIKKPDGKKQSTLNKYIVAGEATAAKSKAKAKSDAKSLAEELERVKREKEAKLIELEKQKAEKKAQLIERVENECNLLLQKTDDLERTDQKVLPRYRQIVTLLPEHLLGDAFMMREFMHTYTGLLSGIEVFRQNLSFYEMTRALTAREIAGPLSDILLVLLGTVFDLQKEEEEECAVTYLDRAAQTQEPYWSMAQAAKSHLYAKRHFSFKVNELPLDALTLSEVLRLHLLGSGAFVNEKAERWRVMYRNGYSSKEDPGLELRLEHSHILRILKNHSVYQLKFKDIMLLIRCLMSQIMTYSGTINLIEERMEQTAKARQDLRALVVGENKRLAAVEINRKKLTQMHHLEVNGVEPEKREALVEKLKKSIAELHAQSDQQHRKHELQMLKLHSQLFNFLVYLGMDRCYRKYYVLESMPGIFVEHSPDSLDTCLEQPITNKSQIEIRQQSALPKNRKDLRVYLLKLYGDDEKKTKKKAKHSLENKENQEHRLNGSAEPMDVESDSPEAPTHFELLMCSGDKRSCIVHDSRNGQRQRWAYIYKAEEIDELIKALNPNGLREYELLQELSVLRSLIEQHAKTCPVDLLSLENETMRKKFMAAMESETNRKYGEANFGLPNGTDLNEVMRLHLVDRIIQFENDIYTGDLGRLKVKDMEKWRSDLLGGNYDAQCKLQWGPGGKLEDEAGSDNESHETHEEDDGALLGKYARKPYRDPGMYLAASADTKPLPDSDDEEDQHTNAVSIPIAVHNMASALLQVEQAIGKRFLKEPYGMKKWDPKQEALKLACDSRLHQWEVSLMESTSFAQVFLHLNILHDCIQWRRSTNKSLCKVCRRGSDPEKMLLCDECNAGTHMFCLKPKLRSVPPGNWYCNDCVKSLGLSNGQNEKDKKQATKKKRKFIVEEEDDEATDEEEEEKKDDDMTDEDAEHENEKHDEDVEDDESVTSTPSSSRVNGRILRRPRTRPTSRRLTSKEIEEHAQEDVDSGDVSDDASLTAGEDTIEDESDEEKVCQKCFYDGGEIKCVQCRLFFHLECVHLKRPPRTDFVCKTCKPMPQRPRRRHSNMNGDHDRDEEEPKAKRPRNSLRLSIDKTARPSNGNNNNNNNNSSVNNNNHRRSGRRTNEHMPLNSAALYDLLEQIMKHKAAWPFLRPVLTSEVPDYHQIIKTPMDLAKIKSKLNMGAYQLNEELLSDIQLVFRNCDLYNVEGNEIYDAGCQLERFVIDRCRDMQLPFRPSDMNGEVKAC
The experiment is described as follows: co-IP; FLAG pulldown of the bought ACF complex: 15 µl of 100 nM ACF on 10 µl anti-FLAG M2 beads in a spin column, 30 min shaking at 4°C, slide buffer without BSA (20 mM HEPES-KOH pH 7.5, 100 mM KCl, 5 mM MgCl2, 1 mM DTT, 5% sucrose). Iswi was followed only by the nucleosome sliding activity left in the flow-through (native gel), not by a blot. Controls: column without beads, and beads pre-blocked with 3xFLAG peptide; both purified.

Regarding “Iswi ATPase subunit of the Drosophila ACF complex (from UniProt Q24368 1-1027) (enzyme)”, the binding entry was “binds”.

Values taken from article PMC6546392.
